Test results as given in PubChem BioAssay AID504467 (National Center for Advancing Translational Sciences (NCATS), 2011).
About 7,700 (2.3%) of roughly 330,000 compounds were called active. The shares of active, inactive and inconclusive entries below differ from those in the screen. Calls follow the shape of the dose curve; as a rule, active = well fitted inhibition curve with a large enough effect; inconclusive = small, poorly fitted or top-dose-only effect, or effect the other way; inactive = flat fitted curve, though single readings scatter. A potency beside an inconclusive call is a rough fit, not a confirmed value.

Assay: qHTS screen for small molecules that inhibit ELG1-dependent DNA repair in human embryonic kidney (HEK293T) cells expressing luciferase-tagged ELG1; also: nearly all actives have a fitted effect of over 55% in size
Conditions: HEK293T ELG1-luciferase reporter, luminescence, 16 h, DNA damage induced by 5-fluorouridine; activity change, negative = inhibition: at 46.1 µM (top of the series)
Procedure, shortened: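 Luminescence from the luciferase reporter, measured 30 min after ONE-Glo reagent at room temperature, was the read-out. Beforehand, 2,000 cells per well were exposed for 16 hr at 37 °C to 5-fluorouridine together with compound or vehicle.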
% is scaled to controls: 0 for no effect and ±100 for the full control effect; potency is read from the fitted curve at half-maximal effect.

Row | Structure (SMILES) | activity change, negative = inhibition | Potency
1 | COc1ccc2c(c1)SCC/C2=C\CN1C(=O)CCC1=O | inactive: -0.98% | 
2 | CCOC(=O)/C(N=Nc1ccc(F)cc1)=C(/O)c1ccc([N+](=O)[O-])cc1 | inactive: -0.53% | 
3 | NC(=O)c1nsc(C(=O)N(CCCN2CCOCC2)C(C(=O)NC2CCCCC2)c2ccc(Cl)cc2)c1N (stereo not drawn) | inactive: 5.9% | 
4 | Cc1ccc(-n2nnnc2SCC(=O)NCC2(N3CCOCC3)CCCCC2)c(C)c1 |  | inconclusive: 32.6 µM [inhibitor, single point]
5 | Cc1cc2cc(NC(=O)c3ccco3)ccc2[nH]1 |  | inconclusive: 18.4 µM [activator, partial curve]
6 | Nc1nc(CSc2ccccn2)nc(Nc2ccccc2)n1 |  | inconclusive: 8.2 µM [activator, partial curve]
7 | COc1ccccc1/C=C/C1(C(=O)NC2CCCC2)CC(=O)N1c1ccc(F)cc1 (stereo not drawn) |  | inconclusive: 25.9 µM [inhibitor, partial curve, poor fit]
8 | CN(c1ccccc1)S(=O)(=O)c1cccc(NC(=O)Cc2c(F)cccc2Cl)c1 |  | inconclusive: 16.4 µM [inhibitor, partial curve]
9 | COc1ccc(CC(=O)N2CCc3cc(OC)c(OC)cc3C2O)cc1OC (stereo not drawn) | inactive: -1.66% | 
10 | CN(C)c1ccnc2sc(C(=O)c3ccc(Br)cc3)c(N)c12 |  | inconclusive: 2.91 µM [activator, partial curve, poor fit]
11 | COC(=O)c1ccc(COc2ccc(Cl)cc2)o1 |  | inconclusive: 8.2 µM [activator, partial curve, poor fit]
12 | COc1ccc(-c2ccc3c(c2)S(=O)(=O)c2cccc(C(=O)N4CCN(C5CCCCC5)CC4)c2C3=O)cc1OC |  | inconclusive: 14.6 µM [inhibitor, partial curve, poor fit]
13 | CC1CCC(C(C)C)C(OCC(O)CNC(C)C)C1 (stereo not drawn) |  | inconclusive: 23.1 µM [inhibitor, partial curve, poor fit]
14 | C[C@H](NS(=O)(=O)c1ccc(F)cc1)C(=O)OCC(=O)c1c(N)n(C)c(=O)n(C)c1=O | inactive: 5.31% | 
15 | Cc1cccc(NC(c2ccc(C)s2)c2ccc3ccc(C)nc3c2O)n1 (stereo not drawn) |  | inconclusive: 3.66 µM [inhibitor, partial curve, poor fit]
16 | Cc1cccc(N2CCN(C(=O)CNC(=O)Cc3ccccc3)CC2)c1C |  | inconclusive: 10.3 µM [inhibitor, single point]
17 | NC(=O)C1CCCN(C(=O)c2ccc(-c3cccc(Cl)c3Cl)o2)C1 (stereo not drawn) |  | inconclusive: 13 µM [activator, partial curve]
18 | CCOC(=O)c1sc(Nc2cccc(Cl)c2)nc1C |  | inconclusive: 2.06 µM [activator, full curve, poor fit]
19 | CC(C)=NNC(=O)C1=NNC(=O)C1 | inactive: -10.5% | 
20 | Cc1noc(C(=O)Nc2ccc(F)cc2F)c1Cl | inactive: 0% | 
21 | O=C(CCn1c(=O)c2ccccc2n(CC(=O)N2CCN(c3ccccc3)CC2)c1=O)NCc1ccco1 | inactive: 0.908% | 
22 | O=C(N/N=C/c1ccc(Br)cc1)c1ccc(Br)o1 |  | inconclusive: 6.51 µM [activator, partial curve]

Some values from the results shown:
Cc1ccc(-n2nnnc2SCC(=O)NCC2(N3CCOCC3)CCCCC2)c(C)c1 | Potency: inconclusive: 32.6 µM [inhibitor, single point]
Cc1cc2cc(NC(=O)c3ccco3)ccc2[nH]1 | Potency: inconclusive: 18.4 µM [activator, partial curve]
C[C@H](NS(=O)(=O)c1ccc(F)cc1)C(=O)OCC(=O)c1c(N)n(C)c(=O)n(C)c1=O | activity change, negative = inhibition: inactive: 5.31%

Following part.

Row | Structure (SMILES) | activity change, negative = inhibition | Potency
23 | CCOC(CCn1c(SCc2ccc([N+](=O)[O-])cc2)nc2ccccc2c1=O)OCC |  | active: 14.6 µM
24 | COC(=O)c1[nH]c2ccc(C)cc2c1NC(=O)CN1CCN(C(=O)c2ccccc2)CC1 |  | active: 20.6 µM
25 | Cc1cccc(C(=O)NNC(=O)C2CCN(C(=O)OC(C)(C)C)CC2)c1 | inactive: 1.3% | 
26 | COc1ccccc1CNC(=O)C(=O)c1cn(CC(=O)N2CCOCC2)c2ccccc12 |  | inconclusive: 23.1 µM [activator, partial curve, poor fit]
27 | Clc1ccc2nc(N3CCN(c4ccccc4)CC3)sc2c1 |  | inconclusive: 2.31 µM [activator, full curve]
28 | Cc1ccc(C)c(N2C(=O)CS/C2=N\NC(=O)c2ccccc2Cl)c1 |  | inconclusive: 23.1 µM [activator, single point]
29 | Nc1ccc(OCCCc2c(N)nc(N)nc2N)cc1 |  | inconclusive: 16.4 µM [activator, partial curve, poor fit]
30 | O=C(COC(=O)CNC(=O)c1ccccc1Cl)NC1CC1 |  | inconclusive: 29.1 µM [activator, single point]
31 | COc1cc(SC)ccc1C(=O)OCC(=O)NC1CC1 |  | inconclusive: 20.6 µM [activator, single point]
32 | Cc1cc(C)c2c(N)c(C(=O)N/N=C/c3cccs3)sc2n1 |  | inconclusive: 2.59 µM [activator, full curve]
33 | CC(=O)Nc1ccc(S(=O)(=O)N2CCC(c3nc4c(nnn4Cc4ccccc4Cl)c(=O)[nH]3)CC2)cc1 |  | inconclusive: 32.6 µM [inhibitor, single point]
34 | CC1CC(C)CN(C(=O)CCn2c(=O)oc3ccccc32)C1 (stereo not drawn) | inactive: 2.76% | 
35 | COc1ccccc1OCc1ccc(C(=O)Nc2ccccc2F)cc1 |  | inconclusive: 10.3 µM [activator, partial curve]
36 | COc1cc([N+](=O)[O-])cc(/C=N/NC(=O)c2cc(-c3ccccc3)nc3ccccc23)c1O |  | inconclusive: 3.66 µM [inhibitor, single point]
37 | Cn1c2ccccc2c2cnn(CC(=O)N3CCCCC3)c(=O)c21 |  | inconclusive: 29.1 µM [activator, single point]
38 | CC(C)CC1CC(=O)OC1(C)C(=O)CSc1nc2ccccc2s1 (stereo not drawn) |  | inconclusive: 25.1 µM [activator, single point]
39 | CCCN1C(=O)C2(C(C(=O)c3ccc(C)o3)=C(O)C(=O)N2CCCOC)c2ccccc21 (stereo not drawn) | inactive: 4.01% | 
40 | O=C1NN=C(c2ccc(Cl)cc2)CC1c1c[nH]c2ccccc12 (stereo not drawn) |  | inconclusive: 8.2 µM [inhibitor, partial curve, poor fit]
41 | C=CCC(Nc1ccccc1)c1ccc(OC)c(OC)c1 (stereo not drawn) |  | inconclusive: 20.6 µM [activator, partial curve, poor fit]
42 | CCOC(=O)N1CCN(C(=O)c2ccc(Cn3c(=S)[nH]c4cc(C(=O)OC)ccc4c3=O)cc2)CC1 |  | inconclusive: 29.1 µM [inhibitor, single point]
43 | CCOC(=O)c1[nH]c2ccc(OC)cc2c1NC(=S)N1CCN(c2ccc(F)cc2)CC1 |  | inconclusive: 29.1 µM [activator, single point]
